Measurements: the supplement of paper PMC11237882
This is one part of the list. Values are worked out from sequencing counts and are noisy.

T1: Homer1 EVH1 domain
T1 chain: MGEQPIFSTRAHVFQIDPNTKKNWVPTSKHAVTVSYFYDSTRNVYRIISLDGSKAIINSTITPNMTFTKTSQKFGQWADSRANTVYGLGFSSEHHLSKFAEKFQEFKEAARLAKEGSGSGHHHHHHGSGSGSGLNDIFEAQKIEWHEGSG


Molecular target: T1, Homer1 EVH1 domain
Assay: enrichment score (AUC of log2 frequency ratio across FACS sorting rounds) (log2 AUC); higher = stronger enrichment for Homer1 EVH1 binding

Binder	enrichment score
LREHLVRFERLRRAMELRRRREIAERERRERERIRI	-1.96
NNFFCDRGQLLKLSCNNTLFTEFILFLMAVFILFGS	3.43
LARVMTLAHAMTLEGVMTPAGMMILAGMMTLAGVMT	3.52
PAFYSENNLGAVSLLLLLFGYATFSWMYLLAGLFHE	3.77
DEAPPRLRVLVSGASMVLPRAVAGLAASGLALLLWK	0.608
EDSPGLKVGPVPVLVMSLLFISSVFMLHIWGKYTRL	0.36
MREWWVQVGLLAVPLLAAYLHIPPPQLSPALHSWKS	-1.35
QITEMFFEHLGVPAFYMSIQAVLALFAAGFTTGLVL	1.53
MPQALERADGSWAWVVLLATMVTQGLTLGFPTCIGI	2.36
LGHFLSELFVYGPAAPTIGVLAPLMVASFSILGMLV	1.75
LVNFVTEKNIISYPECMTQLYFFLVFAIAECHMLAA	1.83
SSTNNSIQTIDSTQALFLPIGASVSLLVMFFFFDSV	2.63
LREFQVIQDLVVSVLTYPLSHFVGYLLAFTLGIEYL	3
PIVAGHIVHSLGFEQLSLGMGLANLLYAPVLLLLRN	0.869
SASCAPLCTPGVDVYWSREDKRFAVVWLAIWAVLCF	1.8
KITAWIYGMGLCALFIVSTVFHIVSWKKSHLRTVEH	0.813
AMETLVCALGLAIGLVGFLVGTVLIIMGTYVSSVPR	-2.57
FVATVPVIVAFIMLRAYFLQTSQQLKQLESEGRSPI	3.41
DPLGGSDTAKGYNLLKPMGKVVTYGMANLLSGPKRN	-0.288
SILVIGLLTALIGDLASHFGCTVGLKDSVNAVVFVA	-1.52
ATTHSAHLVNDFICGGLLGAMLGFLFFPINVVKTRI	3.61
AQKKVKRTLPNPPPEEISTGTQSTFSTMGTVSRRRI	-2.22
DFVDGPIHHRALLISVTVCSLLLVLIILFCYFRYKR	1.06
MGQPWAAGSTDGAPAQLPLVLTALWAAAVGLELAYV	3.58
EKVLWTAITLFIFLVCCQIPLFGIMSSDSADPFYWM	2.68
MKTLAGLVLGLVILDAAVTAPTLESINYDSETYDAT	2.42
MDRSLRNVLVVSFGFLLLFTAYGSLQSLQSSLYSEE	-1.97
MGNWAVNEGLSIFVILVWLGLNVFLFVWYYRVYNIP	1.83
